The test has as its target CSB-mScarletI (knock-in) (human (endogenous in HCT116)) (UniProt Q03468). The test is described as follows: affinity purification with mass spectrometry.

Results are given in words; binding and its absence hold for the method and conditions named. Binding seen in cells or lysates may run through a third protein. These calls come from enrichment with a bait or labelling near it, and not all partners need be listed.

For CUL4A (from UniProt Q13619 1-759), the binding result was “binds”.

With DDB1 (from UniProt Q16531 1-1140), the binding entry is recorded as “binds”.

The record behind these values is publication doi:10.1101/2024.07.22.604556.
